Data published in PubChem BioAssay AID819 (Columbia University Molecular Screening Center, 2007).
In all, about 94,000 compounds went through this assay and about 280 (0.3%) were called active. This list was built around the results that the source calls inconclusive (neither active nor inactive); the mix of calls is not that of the screen.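 How the source made its calls: active means activation above 40%, about the mean plus 3 SD, also judged a hit on visual image review; inconclusive means activation above 40% but not a hit on visual review; inactive means activation not above 40% and no visual hit.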

assay: enhancers of NFkB p65 translocation in HUVEC – imaging, IL-1B stimulus, high-content imaging, primary screen (AID 819); details: HUVEC IL-1B NFkB p65 nuclear translocation imaging; at 2 µM; active compounds read high;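 further: percent activation is computed from the nuclear over cytoplasmic p65 intensity ratio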

Compound | activation
O=C(CSc1ccc(-c2ccc(F)cc2)nn1)N1CCCCC1 | inconclusive: 104%
Cc1ccc(-c2nnc3n2CCCCC3)cc1 | inactive: 18.7%
CCn1ncc([N+](=O)[O-])c1C(=O)N1CCCC1 | inactive: 0.48%
CC(C)Cn1c(SCC(=O)c2ccc(Cl)s2)nnc1-c1ccco1 | inconclusive: 79.9%
CN(C)c1nc(N)nc(/C(C#N)=C/C2CC3C=CC2C3)n1 (configuration not stated) | active: 41.7%
c1ccc2[nH]c(CSc3ncnc4c3oc3ccccc34)nc2c1 | inconclusive: 87.2%
O=C(OCc1ccccc1)/C(=C/c1ccc(Cl)cc1)NC(=O)c1ccccc1Cl | active: 40%
O=C(CSc1ccc2ccccc2c1)Nn1cnnc1 | active: 49.7%
CCN1CCN(CC(=O)n2c3c(c4ccccc42)CC(C)CC3)CC1 (configuration not stated) | inconclusive: 40.4%
CS(=O)(=O)c1nc(-c2ccc(Br)cc2)cc(-c2ccccc2)c1C#N | active: 76.6%
COCCn1c(=N)c(C(=O)NCCc2ccc(OC)cc2)cc2c(=O)n3cccc(C)c3nc21 | inconclusive: 83.9%
CCCCn1c(SCC(=O)Nc2cc(C)on2)nnc1-c1cccnc1 | inconclusive: 41.3%
CCN(C1CCCCC1)S(=O)(=O)c1ccc(S(=O)(=O)NCc2ccncc2)cc1 | inconclusive: 58.4%
COc1ccc(OC)c(N(CC(=O)Nc2ccccc2)S(C)(=O)=O)c1 | inconclusive: 40.1%
COc1ccc(N2C(=O)C3CCCN3C2c2ccccc2)cc1Cl (configuration not stated) | inconclusive: 42.7%
c1ccc(CCc2nn3c(Cc4ccccc4)nnc3s2)cc1 | inconclusive: 41.5%
Cc1ccc(CNC(=O)c2ccc3c(=O)n(CCCN4CCCC4=O)c(=S)[nH]c3c2)cc1 | inconclusive: 44.3%
COC(=O)c1ccc(Oc2c(C)oc3cc(OCc4cnn(-c5ccccc5)c4)ccc3c2=O)cc1 | inconclusive: 50.7%
CC1CC(C)CN(CCCNC(=O)Cc2c(C(=O)O)[nH]c3ccccc23)C1 (configuration not stated) | inconclusive: 42.4%
O=S(=O)(c1cccc2cccnc12)N1CCN(Cc2ccc3c(c2)OCO3)CC1 | inconclusive: 48.5%
O=C(CCCOc1ccc(Cl)cc1)Nc1nncs1 | active: 43%
Cc1nn(-c2ccccc2)c(C)c1/C=N/n1c(-c2ccc(C(C)(C)C)cc2)n[nH]c1=S | inactive: -4.23%
CCOC(=O)C1=C(C)N=C2SC(C)C(=O)N2C1c1cccc(F)c1 (configuration not stated) | inactive: 17.9%

Compound | activation
COc1ccc(C(=O)Nc2cc(OC)nc(OC)n2)cc1 | inconclusive: 41.7%
CCOC(=O)C1=C(Cc2ccc(F)cc2)C(=O)c2ccccc2C1=O | active: 58.7%
O=C(CSc1nnc(-c2ccccc2O)o1)Oc1ccc(OCc2ccccc2)cc1 | inconclusive: 56.1%
COc1ccccc1-c1cc(N)n[nH]1 | inactive: 11.2%
O=S(=O)(Nc1cccnc1)c1ccc(Cl)c(C(F)(F)F)c1 | inactive: 11.3%
CCOC(=O)C1=C(C)Nc2nc3ccccc3n2C1c1ccncc1 (configuration not stated) | inactive: 10.3%
O=C(c1cc(-c2cccs2)nc2ccccc12)N1CCN(S(=O)(=O)c2cccc(F)c2)CC1 | inactive: 9.52%
NC(=O)C1(N2CCCCC2)CCN(C(=O)c2cccs2)CC1 | active: 40%
COc1cc2c(cc1NC(=O)C(C)Sc1ccc(C)cc1)oc1ccccc12 (configuration not stated) | inconclusive: 56.9%
O=C(NC1CCCC1)C1C2C=CC(C2)C1C(=O)N1CCOCC1 (configuration not stated) | inactive: 0.55%
CCOC(=O)C1CCN(S(=O)(=O)c2ccc(-c3nc4ccccc4s3)s2)CC1 | inactive: 6.99%
O=[N+]([O-])c1ccc(-c2nnc(CSc3nc(-c4ccccc4)nc4ccc(F)cc34)o2)cc1 | inconclusive: 52.5%
C=CCNc1nc(N)c(C(=O)Nc2cc(C)on2)s1 | inactive: -10.1%
O=C(/C=C/c1cccc([N+](=O)[O-])c1)NCCN1CCOCC1 | inactive: -0.76%
COc1ccccc1CNS(=O)(=O)c1ccc2[nH]cc(C(=O)O)c(=O)c2c1 | inconclusive: 90.9%
Cc1ccc(Oc2nccc(-c3ccc(Cl)cc3)n2)cc1 | inactive: -1.11%
O=C1CCC(=O)N1CN(C(=O)c1ccco1)c1ccc(Cl)c(Cl)c1 | inconclusive: 65.9%
Cn1c(=O)c2cn(-c3ccccc3)cc2n(C)c1=O | inconclusive: 75.1%
N#Cc1ccc(-c2ccco2)nc1SCC(=O)c1ccc(Cl)cc1 | inconclusive: 53.7%
COc1cccc(NC(=O)c2nn(C)cc2Br)c1 | inconclusive: 40.6%
COCCn1c(C)cc(C(=O)COc2nc3ccccc3nc2C)c1C | inactive: -2.75%
O=C(NC(Cc1ccccc1)c1ccc2c(c1)OCCCO2)c1ccc(F)cc1 (configuration not stated) | active: 43.7%
O=C(CCNS(=O)(=O)c1cccs1)N1CCCCCC1 | inconclusive: 60.8%

Compound | activation
COCCOC(=O)c1c(C)oc2ccc(OCc3cc(C(=O)OC)oc3C)cc12 | inconclusive: 63.2%
c1ccc(-c2cc3c(ccc4nonc43)nn2)cc1 | active: 56.6%
CCc1[nH]nc2c1C(c1cccnc1)C(C#N)=C(N)O2 (configuration not stated) | active: 43.3%
O=C(Nc1cc2c3c(c1)C1CCCC1CN3CC1CCCC21)c1ccc([N+](=O)[O-])cc1 (configuration not stated) | inconclusive: 43.1%
Cc1cc(Cl)ccc1NC(=O)CN1CCC(C(O)(c2ccccc2)c2ccccc2)CC1 | inactive: 5.69%
Cc1onc(-c2ccccc2)c1C(=O)Nc1sc2c(c1C(N)=O)CCC2 | inconclusive: 68%
c1ccc(-n2nnnc2SCc2ccccn2)cc1 | inactive: 21.5%
CC(Sc1nc(N(C)C)nc(N2CCOCC2)n1)C(=O)Nc1ccccc1 (configuration not stated) | inconclusive: 50.1%
O=C(CCCc1ccccc1)c1ccc2c(c1)OCCO2 | inconclusive: 42.4%
COc1cc(OC)c(C2N(c3ccc(Cl)c(Cl)c3)C(=O)C3CCCN32)cc1OC (configuration not stated) | inconclusive: 50.8%
CCOc1cc(NC(=O)C2CC2)c(OCC)cc1NC(=O)c1ccccn1 | inconclusive: 47.5%
Oc1ccc(C=NCC2COc3ccccc3O2)cc1 (configuration not stated) | inconclusive: 41.1%
COC(=O)Nc1ccc2c(c1)N(C(=O)CCN1CCN3CCCC3C1)c1ccccc1S2 (configuration not stated) | inconclusive: 44.2%
CC1CCCCC1NC(=O)c1nn(C)c(=O)c2ccccc12 (configuration not stated) | active: 78.2%
Cc1cccc(NS(=O)(=O)c2ccc3c(c2)OCCO3)c1 | inactive: 21.4%
COCC(=O)N(C)c1nnc(-c2ccc([N+](=O)[O-])cc2)s1 | inconclusive: 41%
CC(C)(C)NS(=O)(=O)c1ccc(NS(C)(=O)=O)cc1 | inconclusive: 41.8%
CCC1(CC)NC(=O)N(CC(=O)Nc2sc3c(c2C(N)=O)CCC3)C1=O | inactive: 36.7%
COc1cc(NC(=S)Nc2cccnc2)cc(OC)c1OC | inconclusive: 55.1%
Cc1ccc2nc(NCc3ccccc3)[nH]c2c1 | inconclusive: 48.2%
Cc1ccc(S(=O)(=O)NCc2ccc(C(=O)N3CCN(c4ccccn4)CC3)cc2)cc1 | inconclusive: 41.8%
O=C(NC(Cc1ccc2c(c1)OCO2)C(=O)NC(Cc1ccccc1)C(=O)O)c1ccccc1 (configuration not stated) | inconclusive: 44.3%
O=C/C(=C\Nc1ccc(Cl)cn1)c1nc2cc(Cl)ccc2o1 | active: 50.1%

Compound | activation
Cc1nnc(NC(=O)CSc2nnc(Cc3ccccc3)n2-c2ccccc2)s1 | inactive: -6.12%
COc1ccccc1C1CC(=O)NC(C)=C1C(=O)OCC(C)C (configuration not stated) | inconclusive: 69.6%
CCCCn1nnnc1NCc1cccc(OC)c1OC | active: 114%
Cc1ccc(C(=O)C[n+]2cccc3ccccc32)cc1 | inactive: -12.1%
COc1ccc2sc3c(=O)[nH]c4ccccc4c3c2c1 | active: 43.4%
Cc1cc(C)n(-c2ccc(C(=O)OC(C)C)cc2)n1 | inconclusive: 45.9%
Cc1c(C)c2ccc(Oc3ccc([N+](=O)[O-])cc3C(F)(F)F)c(C)c2oc1=O | active: 67.3%
CSc1nc(SCC(=O)NCc2ccco2)c2c3c(sc2n1)CN(C)CC3 | inactive: 25.5%
O=C(c1cccs1)N(Cc1nc2sc3c(c2c(=O)[nH]1)CCCC3)C1CCCC1 | inactive: 1.91%
CCCCCCCOC(=O)C1=C(C)Nc2ncnn2C1c1cccs1 (configuration not stated) | active: 40.9%
COc1ccc(C2(CNC(=O)/C=C/c3ccco3)CCCC2)cc1OC | inconclusive: 71.5%
c1cc(N2CCCC2)ccc1C(c1nnnn1C1CCCCC1)N1CCOCC1 (configuration not stated) | inconclusive: 61.4%
COc1ccc(C(=O)C[n+]2ccc3c(c2)nc(-c2ccc(OC)cc2OC)n3C)cc1 | inconclusive: 65.4%
CCCCNC(=O)Nc1cnn(CC)c1C(N)=O | inconclusive: 44.8%
CCC(=O)c1ccc(N2CCN(C(=O)c3ccc(Br)cc3)CC2)c(F)c1 | inactive: 8.94%
CCOc1ccc(N(CC(=O)N2CC=C(c3ccccc3)CC2)S(=O)(=O)c2c(C)noc2C)cc1 | inactive: -8.46%
COc1ccc2c3c(cccc13)NN=C2C | inactive: -30.4%
Cc1ccccc1NC(=S)NC1CC2CCC(C1)N2Cc1ccco1 (configuration not stated) | inconclusive: 63.3%
COc1ccc(NCc2nnc(SCC(=O)NCc3ccccc3)n2-c2ccccc2OC)cc1 | inconclusive: 41.3%
O=C(O)C1CC(c2cccc(Br)c2)=NO1 (configuration not stated) | inactive: 6.75%
CCOc1ccccc1NC(=O)CSc1nnc(Cc2cccn2C)n1-c1ccc(F)cc1 | inconclusive: 65.4%
COc1ccc(CCN(Cc2cc3cc(C)c(C)cc3nc2Cl)C(=O)C2CC2)cc1 | inactive: 5.13%
C=CCN1C(=O)/C(=C2\SC(N3CCOCC3)=NC2=O)c2cc(Br)ccc21 | inconclusive: 53.9%
